This is an account of results in PMC7819943, “Rice protein-binding microarrays: a tool to detect cis-acting elements near promoter regions in rice”.

Sequences of proteins named here, by UniProt entry; tags and fusion partners are left off.
UniProt Q0JBA9, entry or part of it: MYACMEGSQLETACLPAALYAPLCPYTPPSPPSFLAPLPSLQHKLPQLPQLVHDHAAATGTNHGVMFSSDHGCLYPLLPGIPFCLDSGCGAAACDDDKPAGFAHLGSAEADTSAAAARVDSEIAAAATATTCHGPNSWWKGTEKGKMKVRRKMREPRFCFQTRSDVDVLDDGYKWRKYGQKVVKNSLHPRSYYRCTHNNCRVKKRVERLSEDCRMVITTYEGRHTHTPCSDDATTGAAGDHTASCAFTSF

Some of the results follow.

The test deals with OsWRKY34 (Oryza sativa, UniProt Q0JBA9 1-250). As to the kind of experiment: protein-binding microarray (RPBM); PBS, 2% BSA, 51.3 ng/ul salmon testes DNA, 50 uM zinc acetate, 200 nM TF, 25 C, 1 h; high values mean tight binding. The settings on record: protein: recombinant; tags: N-terminal polyhistidine and DsRed monomer fusion (pET32a); label: CyDye5-dUTP incorporated in the synthesized complementary strand; 3' TTTTT single-stranded linker to array surface; dsDNA, one strand shown. Put shortly: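 The binding signal for each feature is its fluorescence intensity in arbitrary units. An Axon 4000B scanner was used to read a custom Agilent array that had been made double-stranded with Cy5-dUTP primer extension, blocked with 2% BSA, incubated at 25 °C for 1 h with 200 nM protein in PBS, 2% BSA, salmon testes DNA and 50 µM zinc acetate, and washed. The protein was an N-terminal polyhistidine–DsRed transcription factor fusion from E. coli BL21-CodonPlus, purified on Ni–NTA.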
For the sequence “GGGCCTTGGGCGGGTTGGGCTCGAGCGAAGACGTTCCCTCCGGAGTCACCTAGTGCAG”, the binding signal is 10600 fluorescence intensity (a.u.).

For “CACGGGCCGCCCGTTTCGTCGCGATCACCACCACCAGCATCGGAGTCACCTAGTGCAG”, the binding signal is 10800 fluorescence intensity (a.u.).

Regarding “AACTCTTCTTGTCTCTTCACCTCGCCACCGGGGCCGCCATCGGAGTCACCTAGTGCAG”, the binding signal is 9390 fluorescence intensity (a.u.).

For “GTCCTTTCAGTGTTGCGCTTTTGCTTATTGTAGTTATTGGCGGAGTCACCTAGTGCAG”, the binding signal was 16300 fluorescence intensity (a.u.).

Turning to “GAATTTTGGTAGGATGGGGATGGGGAATTGAGGAAGGAACCGGAGTCACCTAGTGCAG”, the binding signal is 10300 fluorescence intensity (a.u.).

Turning to “CTATGGCCTTTTTAGTTGTAATTATATTATCGTTTATTATCGGAGTCACCTAGTGCAG”, the binding signal was 9120 fluorescence intensity (a.u.).

For “ACTACCTCGCCATTGCCACCACCAGCAGCAGCTCGCCATCCGGAGTCACCTAGTGCAG”, the binding signal was 10500 fluorescence intensity (a.u.).

Regarding “GCCAGGCAGGGGAGGGTCGTTAAGTAGCATCCCATGTCACCGGAGTCACCTAGTGCAG”, the binding signal was 8220 fluorescence intensity (a.u.).

On to “GAGGTGAGACGGTGGTCTCCCGGATTCGGTGGGTGGTGGGCGGAGTCACCTAGTGCAG”, for which the binding signal was 8220 fluorescence intensity (a.u.).

Consider “TAGCGCTGTAGTCAGTATTTTTTCAGTGTTGTATCTCACTCGGAGTCACCTAGTGCAG”, for which the binding signal was 10500 fluorescence intensity (a.u.).

As to “CATCGTCACGGTTGGTGTTCGGTCTCCGCTCGATCGACTCCGGAGTCACCTAGTGCAG”, the binding signal was 11400 fluorescence intensity (a.u.).

In the case of “TTGTCAGTGCCTTAGGCTAGCTTCAGCCTTGTCCATCACTCGGAGTCACCTAGTGCAG”, the binding signal is 8740 fluorescence intensity (a.u.).

“AGACCAAGCCATATCACCTTATGTAATTTCTTTATGTGCTCGGAGTCACCTAGTGCAG”: the binding signal was 9010 fluorescence intensity (a.u.).

On to “GCAACCGGCTTTCTTTCCTTTCTTTCTTTAATTTCTTTCCCGGAGTCACCTAGTGCAG”, for which the binding signal was 8230 fluorescence intensity (a.u.).

On to “TTGTTCTTTTTGGTCTGGTTTTTTTGTGGTTTCTTGATTGCGGAGTCACCTAGTGCAG”, for which the binding signal was 9010 fluorescence intensity (a.u.).

For the sequence “GCCACTTTTGCAGTCTATTGGGCCTAGTCTGTGATTATAACGGAGTCACCTAGTGCAG”, the binding signal was 8130 fluorescence intensity (a.u.).

Consider “TGTCTTAGTTCTCTTTTGTTTTTTGGCTGTGCATCCCTGACGGAGTCACCTAGTGCAG”, for which the binding signal is 10800 fluorescence intensity (a.u.).

With “ATGTTGCTTCATTTTCCAGTATTTGTTATTTTATTATTGACGGAGTCACCTAGTGCAG”, the binding signal was 11100 fluorescence intensity (a.u.).

Turning to “GTCTACTATTGTACCTGCTCTTAGTTCATGAGTGAATAAACGGAGTCACCTAGTGCAG”, the binding signal was 10300 fluorescence intensity (a.u.).

For the sequence “GGTGGGTAGTTTTCTGCGTTTTCTTTTGTATTTTTGGTTGCGGAGTCACCTAGTGCAG”, the binding signal was 11500 fluorescence intensity (a.u.).

Take “GGGGATCACACCTGTTACCACTCGCGGTCTTTTAAACATTCGGAGTCACCTAGTGCAG”: the binding signal is 12100 fluorescence intensity (a.u.).

On to “GGGTTGGGAAAGATGGGATAAGACCACAGCCTATATGTTCCGGAGTCACCTAGTGCAG”, for which the binding signal is 9200 fluorescence intensity (a.u.).

As to “TTCCCAATCCCAATTCCATTCATTCTCCCTCATCCATTTACGGAGTCACCTAGTGCAG”, the binding signal is 10100 fluorescence intensity (a.u.).
